# Results are given in words; binding and its absence hold for the method and conditions named. For some assays here: Binding seen in cells or lysates may run through a third protein. Some binding calls cover weakened binding; strength is not graded here. Sequences can lack the tags named with a protein.
# T1: Chk1 (yeast two-hybrid fusion) (S. cerevisiae) (UniProt P38147)
# T1 sequence: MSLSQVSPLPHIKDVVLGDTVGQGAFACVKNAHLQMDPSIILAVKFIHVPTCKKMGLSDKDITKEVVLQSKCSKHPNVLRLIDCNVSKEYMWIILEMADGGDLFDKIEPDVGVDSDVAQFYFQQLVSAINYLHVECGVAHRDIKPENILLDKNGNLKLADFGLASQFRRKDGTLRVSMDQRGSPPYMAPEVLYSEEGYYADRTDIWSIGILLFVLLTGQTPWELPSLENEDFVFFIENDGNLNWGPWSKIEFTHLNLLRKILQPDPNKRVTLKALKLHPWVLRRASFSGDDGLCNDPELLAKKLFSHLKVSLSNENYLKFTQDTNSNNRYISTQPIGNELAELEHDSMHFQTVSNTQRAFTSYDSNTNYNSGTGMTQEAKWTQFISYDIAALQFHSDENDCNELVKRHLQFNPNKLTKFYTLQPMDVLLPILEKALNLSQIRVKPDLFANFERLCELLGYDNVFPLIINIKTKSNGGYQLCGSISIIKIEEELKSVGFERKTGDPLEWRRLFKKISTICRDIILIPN
# T2: Rad9-9MYC (S. cerevisiae) (UniProt P14737)
# T2 sequence: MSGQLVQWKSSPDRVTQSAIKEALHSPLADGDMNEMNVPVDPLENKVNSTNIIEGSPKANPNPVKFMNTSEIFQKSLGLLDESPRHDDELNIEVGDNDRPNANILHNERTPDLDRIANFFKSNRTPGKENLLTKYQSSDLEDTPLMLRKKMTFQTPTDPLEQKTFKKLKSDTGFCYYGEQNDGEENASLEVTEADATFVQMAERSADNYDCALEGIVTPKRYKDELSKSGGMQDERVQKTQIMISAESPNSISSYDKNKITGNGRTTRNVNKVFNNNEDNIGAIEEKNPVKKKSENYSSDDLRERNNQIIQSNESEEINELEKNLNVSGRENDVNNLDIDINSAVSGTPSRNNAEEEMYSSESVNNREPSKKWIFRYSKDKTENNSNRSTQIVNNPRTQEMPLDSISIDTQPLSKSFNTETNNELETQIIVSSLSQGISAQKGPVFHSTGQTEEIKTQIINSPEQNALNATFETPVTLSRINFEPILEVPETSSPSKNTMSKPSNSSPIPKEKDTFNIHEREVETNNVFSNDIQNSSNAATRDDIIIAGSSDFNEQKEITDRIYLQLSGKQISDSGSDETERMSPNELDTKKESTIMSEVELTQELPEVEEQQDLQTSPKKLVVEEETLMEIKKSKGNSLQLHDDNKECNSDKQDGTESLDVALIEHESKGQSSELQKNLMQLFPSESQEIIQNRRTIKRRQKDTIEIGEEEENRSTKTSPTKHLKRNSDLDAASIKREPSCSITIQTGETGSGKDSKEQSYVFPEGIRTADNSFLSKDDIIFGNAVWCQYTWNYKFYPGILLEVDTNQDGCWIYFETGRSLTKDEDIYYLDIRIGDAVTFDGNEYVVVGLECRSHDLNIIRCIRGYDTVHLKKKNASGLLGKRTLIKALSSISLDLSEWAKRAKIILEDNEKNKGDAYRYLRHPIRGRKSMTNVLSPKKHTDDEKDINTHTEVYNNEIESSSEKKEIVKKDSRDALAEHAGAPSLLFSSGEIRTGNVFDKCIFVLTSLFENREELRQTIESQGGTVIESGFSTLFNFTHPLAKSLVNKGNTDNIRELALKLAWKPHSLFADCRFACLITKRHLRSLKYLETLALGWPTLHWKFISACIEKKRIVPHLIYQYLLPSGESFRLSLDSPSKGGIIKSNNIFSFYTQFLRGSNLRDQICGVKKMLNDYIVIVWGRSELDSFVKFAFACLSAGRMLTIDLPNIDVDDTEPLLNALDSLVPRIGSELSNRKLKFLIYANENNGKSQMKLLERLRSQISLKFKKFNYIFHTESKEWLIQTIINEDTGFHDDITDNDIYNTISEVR
# T3: Dpb11-13MYC (S. cerevisiae) (UniProt P47027)
# T3 sequence: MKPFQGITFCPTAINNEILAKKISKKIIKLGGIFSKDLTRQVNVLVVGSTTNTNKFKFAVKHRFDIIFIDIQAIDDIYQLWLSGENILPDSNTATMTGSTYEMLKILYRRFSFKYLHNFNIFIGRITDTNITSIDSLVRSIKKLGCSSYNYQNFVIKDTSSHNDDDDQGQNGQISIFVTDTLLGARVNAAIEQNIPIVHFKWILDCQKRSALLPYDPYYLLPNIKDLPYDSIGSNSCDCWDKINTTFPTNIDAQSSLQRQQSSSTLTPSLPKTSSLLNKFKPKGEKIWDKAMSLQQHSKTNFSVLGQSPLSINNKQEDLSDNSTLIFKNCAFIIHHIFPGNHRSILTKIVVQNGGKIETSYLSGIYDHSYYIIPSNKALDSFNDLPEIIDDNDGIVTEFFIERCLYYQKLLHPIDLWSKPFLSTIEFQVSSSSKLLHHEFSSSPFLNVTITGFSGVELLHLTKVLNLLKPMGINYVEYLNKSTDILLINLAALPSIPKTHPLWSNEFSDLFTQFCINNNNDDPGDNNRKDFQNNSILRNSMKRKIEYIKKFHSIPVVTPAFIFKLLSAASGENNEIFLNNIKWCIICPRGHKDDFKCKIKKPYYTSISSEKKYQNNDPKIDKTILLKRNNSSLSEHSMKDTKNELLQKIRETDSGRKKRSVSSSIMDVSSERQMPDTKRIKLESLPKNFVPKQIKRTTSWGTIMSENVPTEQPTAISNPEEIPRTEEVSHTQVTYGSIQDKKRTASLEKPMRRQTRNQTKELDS
# Key:
# [1] = biological target: T1, Chk1 (yeast two-hybrid fusion) (S. cerevisiae); assay: two-hybrid; Matchmaker Gold Y2H cells arrested in G2/M and in G1; alpha-galactosidase activity measured by the PNP assay (Figure S5A)
# [2] = biological target: T1, Chk1 (yeast two-hybrid fusion) (S. cerevisiae); assay: two-hybrid; Clontech Matchmaker Gold system; interaction read by white colony colour, resistance to Aureobasidin A and blue colour on X-alpha-gal (Figure 5A, six clones each); read-out of Figures 6A and S6C-E not told
# [3] = biological target: T2, Rad9-9MYC (S. cerevisiae); assay: co-IP; anti-MYC IP of Rad9-9MYC from extract of nocodazole-arrested cells expressing Rad9-9MYC and Chk1-3FLAG, 20 ug/ml bleocin for 45 min; IgG mock control; western blot
# [4] = biological target: T2, Rad9-9MYC (S. cerevisiae); assay: co-IP; Rad9-9MYC immunoprecipitated (anti-MYC) from bleocin-treated nocodazole-arrested cells; beads washed and incubated with ATP, ATP-gammaS or no nucleotide; beads and elution blotted
# [5] = biological target: T3, Dpb11-13MYC (S. cerevisiae); assay: co-IP; anti-FLAG (Chk1-3FLAG) or anti-MYC (Dpb11-13MYC) IP from 1 ml clarified crude extract (10 mg/ml) of nocodazole-arrested wild type or rad9^CDK1-9A cells, mock or 20 ug/ml bleocin for 45 min; IgG mock IP as control; western blot
binding [1],binding [2],binding [3],binding [4],binding [5],Binder
binds,binds,,,,"full length Rad9 (yeast two-hybrid fusion) (protein, UniProt P14737 1-1309) MSGQLVQWKSSPDRVTQSAIKEALHSPLADGDMNEMNVPVDPLENKVNSTNIIEGSPKANPNPVKFMNTSEIFQKSLGLLDESPRHDDELNIEVGDNDRPNANILHNERTPDLDRIANFFKSNRTPGKENLLTKYQSSDLEDTPLMLRKKMTFQTPTDPLEQKTFKKLKSDTGFCYYGEQNDGEENASLEVTEADATFVQMAERSADNYDCALEGIVTPKRYKDELSKSGGMQDERVQKTQIMISAESPNSISSYDKNKITGNGRTTRNVNKVFNNNEDNIGAIEEKNPVKKKSENYSSDDLRERNNQIIQSNESEEINELEKNLNVSGRENDVNNLDIDINSAVSGTPSRNNAEEEMYSSESVNNREPSKKWIFRYSKDKTENNSNRSTQIVNNPRTQEMPLDSISIDTQPLSKSFNTETNNELETQIIVSSLSQGISAQKGPVFHSTGQTEEIKTQIINSPEQNALNATFETPVTLSRINFEPILEVPETSSPSKNTMSKPSNSSPIPKEKDTFNIHEREVETNNVFSNDIQNSSNAATRDDIIIAGSSDFNEQKEITDRIYLQLSGKQISDSGSDETERMSPNELDTKKESTIMSEVELTQELPEVEEQQDLQTSPKKLVVEEETLMEIKKSKGNSLQLHDDNKECNSDKQDGTESLDVALIEHESKGQSSELQKNLMQLFPSESQEIIQNRRTIKRRQKDTIEIGEEEENRSTKTSPTKHLKRNSDLDAASIKREPSCSITIQTGETGSGKDSKEQSYVFPEGIRTADNSFLSKDDIIFGNAVWCQYTWNYKFYPGILLEVDTNQDGCWIYFETGRSLTKDEDIYYLDIRIGDAVTFDGNEYVVVGLECRSHDLNIIRCIRGYDTVHLKKKNASGLLGKRTLIKALSSISLDLSEWAKRAKIILEDNEKNKGDAYRYLRHPIRGRKSMTNVLSPKKHTDDEKDINTHTEVYNNEIESSSEKKEIVKKDSRDALAEHAGAPSLLFSSGEIRTGNVFDKCIFVLTSLFENREELRQTIESQGGTVIESGFSTLFNFTHPLAKSLVNKGNTDNIRELALKLAWKPHSLFADCRFACLITKRHLRSLKYLETLALGWPTLHWKFISACIEKKRIVPHLIYQYLLPSGESFRLSLDSPSKGGIIKSNNIFSFYTQFLRGSNLRDQICGVKKMLNDYIVIVWGRSELDSFVKFAFACLSAGRMLTIDLPNIDVDDTEPLLNALDSLVPRIGSELSNRKLKFLIYANENNGKSQMKLLERLRSQISLKFKKFNYIFHTESKEWLIQTIINEDTGFHDDITDNDIYNTISEVR"
,,binds,binds,no binding,"Chk1-3FLAG (protein, UniProt P38147 1-527) MSLSQVSPLPHIKDVVLGDTVGQGAFACVKNAHLQMDPSIILAVKFIHVPTCKKMGLSDKDITKEVVLQSKCSKHPNVLRLIDCNVSKEYMWIILEMADGGDLFDKIEPDVGVDSDVAQFYFQQLVSAINYLHVECGVAHRDIKPENILLDKNGNLKLADFGLASQFRRKDGTLRVSMDQRGSPPYMAPEVLYSEEGYYADRTDIWSIGILLFVLLTGQTPWELPSLENEDFVFFIENDGNLNWGPWSKIEFTHLNLLRKILQPDPNKRVTLKALKLHPWVLRRASFSGDDGLCNDPELLAKKLFSHLKVSLSNENYLKFTQDTNSNNRYISTQPIGNELAELEHDSMHFQTVSNTQRAFTSYDSNTNYNSGTGMTQEAKWTQFISYDIAALQFHSDENDCNELVKRHLQFNPNKLTKFYTLQPMDVLLPILEKALNLSQIRVKPDLFANFERLCELLGYDNVFPLIINIKTKSNGGYQLCGSISIIKIEEELKSVGFERKTGDPLEWRRLFKKISTICRDIILIPN"

# Reference: article PMC3616908
